Source: PMC7919836
Results are given in words; binding and its absence hold for the method and conditions named. In cells and extracts the contact can be indirect. Some entries that bind do so weakly or less than the wild type. Where a sequence is shown, tags or fusion partners need not be part of it. Each block holds one binder with its values, some of them ahead of it.

Legend:
[1] = biological target: T1, SFB-tagged OTUD6A, full-length wild type (aa 1-288) (human) (UniProt Q7L8S5); test: pull-down; SFB-tagged DUB (or OTUD6A full length or truncated) and MYC-tagged Aurora-A (full length or truncated) co-transfected into HEK293T; lysis in NETN buffer; DUB pulled down with S-protein beads at 4 °C overnight; Aurora-A blotted with MYC antibody
T1 sequence: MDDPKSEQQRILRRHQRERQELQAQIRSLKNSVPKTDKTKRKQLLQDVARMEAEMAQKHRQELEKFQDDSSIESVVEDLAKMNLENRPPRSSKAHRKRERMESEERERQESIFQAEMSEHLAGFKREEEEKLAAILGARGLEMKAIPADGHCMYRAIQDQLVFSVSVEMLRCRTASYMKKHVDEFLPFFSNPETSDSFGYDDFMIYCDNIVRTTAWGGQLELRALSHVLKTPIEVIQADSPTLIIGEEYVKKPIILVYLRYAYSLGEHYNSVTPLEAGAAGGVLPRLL

SFB-tagged OTUD1 (human) = biological target: T2, SFB-tagged OTUD1 (human) (UniProt Q5VV17); test: pull-down; SFB-tagged OTUD6A, OTUD1 or GFP control transfected into HEK293T; pulled down with S-protein beads; associated endogenous Aurora-A blotted with Aurora-A-specific antibody
T2 sequence: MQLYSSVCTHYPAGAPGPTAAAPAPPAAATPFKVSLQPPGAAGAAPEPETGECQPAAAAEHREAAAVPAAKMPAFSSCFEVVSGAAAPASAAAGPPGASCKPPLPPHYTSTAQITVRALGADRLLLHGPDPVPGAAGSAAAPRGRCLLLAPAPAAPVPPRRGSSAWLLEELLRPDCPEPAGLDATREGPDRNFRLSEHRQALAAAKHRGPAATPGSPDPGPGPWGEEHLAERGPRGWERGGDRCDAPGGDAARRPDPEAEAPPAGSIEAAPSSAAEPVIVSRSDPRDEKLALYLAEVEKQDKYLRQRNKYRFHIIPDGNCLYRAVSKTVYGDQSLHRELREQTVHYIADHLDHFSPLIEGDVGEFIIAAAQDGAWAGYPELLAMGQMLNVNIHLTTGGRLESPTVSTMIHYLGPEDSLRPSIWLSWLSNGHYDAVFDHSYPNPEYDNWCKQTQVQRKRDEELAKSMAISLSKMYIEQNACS

[2] = biological target: T1, SFB-tagged OTUD6A, full-length wild type (aa 1-288) (human); test: as above
[3] = biological target: SFB-tagged USP7 (human), Q93009; test: pull-down; SFB-tagged DUB (or OTUD6A full length or truncated) and MYC-tagged Aurora-A (full length or truncated) co-transfected into HEK293T; lysis in NETN buffer; DUB pulled down with S-protein beads at 4 °C overnight; Aurora-A blotted with MYC antibody; details: remark: other sources report otherwise
[4] = biological target: T3, MYC-tagged Aurora kinase A, full-length wild type (aa 1-403) (human) (UniProt O14965); test: co-IP; reverse co-immunoprecipitation: MYC-tagged Aurora-A pulled down with MYC-beads from lysate of co-transfected HEK293T; SFB-tagged OTUD6A blotted with FLAG antibody
T3 sequence: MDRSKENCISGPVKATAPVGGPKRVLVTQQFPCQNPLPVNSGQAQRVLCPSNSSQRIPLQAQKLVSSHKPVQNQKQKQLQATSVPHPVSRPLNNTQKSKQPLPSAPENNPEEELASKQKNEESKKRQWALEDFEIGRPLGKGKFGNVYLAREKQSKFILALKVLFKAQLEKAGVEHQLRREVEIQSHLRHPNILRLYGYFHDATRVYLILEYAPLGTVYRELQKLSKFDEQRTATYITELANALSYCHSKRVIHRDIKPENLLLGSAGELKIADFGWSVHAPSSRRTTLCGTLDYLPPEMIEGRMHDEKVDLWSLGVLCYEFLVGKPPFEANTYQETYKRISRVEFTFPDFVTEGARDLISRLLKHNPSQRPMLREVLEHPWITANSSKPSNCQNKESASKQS

binding [1]: no binding
B1: MYC-tagged Aurora-A^ΔKD (kinase-domain-deleted, aa 1-132 & 384-403) (domain or fragment, UniProt O14965)
chain: MDRSKENCISGPVKATAPVGGPKRVLVTQQFPCQNPLPVNSGQAQRVLCPSNSSQRIPLQAQKLVSSHKPVQNQKQKQLQATSVPHPVSRPLNNTQKSKQPLPSAPENNPEEELASKQKNEESKKRQWALEDTANSSKPSNCQNKESASKQS

binding [1]: no binding
B2: MYC-tagged Aurora-A^Nt (N-terminal only, aa 1-132) (domain or fragment, UniProt O14965 1-132)
chain: MDRSKENCISGPVKATAPVGGPKRVLVTQQFPCQNPLPVNSGQAQRVLCPSNSSQRIPLQAQKLVSSHKPVQNQKQKQLQATSVPHPVSRPLNNTQKSKQPLPSAPENNPEEELASKQKNEESKKRQWALED

binding (SFB-tagged OTUD1 (human)): binds weakly | binding [2]: binds
B3: endogenous Aurora-A (protein, UniProt O14965 1-403)
chain: MDRSKENCISGPVKATAPVGGPKRVLVTQQFPCQNPLPVNSGQAQRVLCPSNSSQRIPLQAQKLVSSHKPVQNQKQKQLQATSVPHPVSRPLNNTQKSKQPLPSAPENNPEEELASKQKNEESKKRQWALEDFEIGRPLGKGKFGNVYLAREKQSKFILALKVLFKAQLEKAGVEHQLRREVEIQSHLRHPNILRLYGYFHDATRVYLILEYAPLGTVYRELQKLSKFDEQRTATYITELANALSYCHSKRVIHRDIKPENLLLGSAGELKIADFGWSVHAPSSRRTTLCGTLDYLPPEMIEGRMHDEKVDLWSLGVLCYEFLVGKPPFEANTYQETYKRISRVEFTFPDFVTEGARDLISRLLKHNPSQRPMLREVLEHPWITANSSKPSNCQNKESASKQS

binding [3]: binds
B4: MYC-tagged Aurora kinase A, full-length wild type (aa 1-403), O14965 1-403 (protein)
chain: MDRSKENCISGPVKATAPVGGPKRVLVTQQFPCQNPLPVNSGQAQRVLCPSNSSQRIPLQAQKLVSSHKPVQNQKQKQLQATSVPHPVSRPLNNTQKSKQPLPSAPENNPEEELASKQKNEESKKRQWALEDFEIGRPLGKGKFGNVYLAREKQSKFILALKVLFKAQLEKAGVEHQLRREVEIQSHLRHPNILRLYGYFHDATRVYLILEYAPLGTVYRELQKLSKFDEQRTATYITELANALSYCHSKRVIHRDIKPENLLLGSAGELKIADFGWSVHAPSSRRTTLCGTLDYLPPEMIEGRMHDEKVDLWSLGVLCYEFLVGKPPFEANTYQETYKRISRVEFTFPDFVTEGARDLISRLLKHNPSQRPMLREVLEHPWITANSSKPSNCQNKESASKQS

binding [1]: binds
B5: MYC-tagged Aurora-A^ΔCt (C-terminal-deleted, aa 1-383) (domain or fragment, UniProt O14965 1-383)
chain: MDRSKENCISGPVKATAPVGGPKRVLVTQQFPCQNPLPVNSGQAQRVLCPSNSSQRIPLQAQKLVSSHKPVQNQKQKQLQATSVPHPVSRPLNNTQKSKQPLPSAPENNPEEELASKQKNEESKKRQWALEDFEIGRPLGKGKFGNVYLAREKQSKFILALKVLFKAQLEKAGVEHQLRREVEIQSHLRHPNILRLYGYFHDATRVYLILEYAPLGTVYRELQKLSKFDEQRTATYITELANALSYCHSKRVIHRDIKPENLLLGSAGELKIADFGWSVHAPSSRRTTLCGTLDYLPPEMIEGRMHDEKVDLWSLGVLCYEFLVGKPPFEANTYQETYKRISRVEFTFPDFVTEGARDLISRLLKHNPSQRPMLREVLEHPWI

binding [4]: binds
B6: SFB-tagged OTUD6A, full-length wild type (aa 1-288) (enzyme, UniProt Q7L8S5 1-288)
chain: MDDPKSEQQRILRRHQRERQELQAQIRSLKNSVPKTDKTKRKQLLQDVARMEAEMAQKHRQELEKFQDDSSIESVVEDLAKMNLENRPPRSSKAHRKRERMESEERERQESIFQAEMSEHLAGFKREEEEKLAAILGARGLEMKAIPADGHCMYRAIQDQLVFSVSVEMLRCRTASYMKKHVDEFLPFFSNPETSDSFGYDDFMIYCDNIVRTTAWGGQLELRALSHVLKTPIEVIQADSPTLIIGEEYVKKPIILVYLRYAYSLGEHYNSVTPLEAGAAGGVLPRLL
